Test system: subjects with uterine serous carcinoma (USC)
Experiment: ZN-c3-001 (NCT04158336) open label, multicenter, Phase I dose escalation and expansion study; subjects with USC at doses ≥300 mg QD
Type: in vivo, human
Conditions: 14 USC subjects, ZN-c3 ≥300 mg QD oral
Description: ZN-c3-001 (NCT04158336) is an open label, multicenter, Phase I dose escalation and expansion study evaluating the safety and clinical activity of ZN-c3 in subjects with advanced or metastatic solid tumors, refractory to standard therapy or for whom no standard therapy is available. Oral, daily ZN-c3 dosing was escalated from 25 mg to 450 mg once daily (QD), with a recommended phase 2 dose of 300 mg QD. Here we report preliminary safety and efficacy results for subjects with USC who received ZN-c3 at doses ≥300 mg QD.

C=CCn1c(=O)c2cnc(Nc3ccc(N4CCN(C)CC4)cc3)nc2n1-c1ccc2c(n1)[C@@](O)(CC)CC2 [ZN-c3, (R)-2-allyl-1-(7-ethyl-7-hydroxy-6,7-dihydro-5H-cyclopenta[b]pyridin-2-yl)-6-((4-(4-methylpiperazin-1-yl)phenyl)amino)-1,2-dihydro-3H-pyrazolo[3,4-d]pyrimidin-3-one]
duration of treatment, range: 2-36 weeks | Median duration of treatment (as of Jan. 21, 2022): 12.4 weeks

— US20240197743A1, “WEE1 COMPOUND FOR TREATING UTERINE SEROUS CARCINOMA” (Recurium IP Holdings, LLC, priority 2021, published 2024)
